Experimental data taken from the supplement of paper PMC12067093, “Discovery and optimisation of a covalent ligand for TRIM25 and its application to targeted protein ubiquitination” (Chemical Science, 2025).
Some of the results follow.

Chains of the proteins cited; added tags and fusions are not shown. Lines headed by an entry give the natural chain unless they say otherwise; changes in a name come on top.
UniProt Q96K83: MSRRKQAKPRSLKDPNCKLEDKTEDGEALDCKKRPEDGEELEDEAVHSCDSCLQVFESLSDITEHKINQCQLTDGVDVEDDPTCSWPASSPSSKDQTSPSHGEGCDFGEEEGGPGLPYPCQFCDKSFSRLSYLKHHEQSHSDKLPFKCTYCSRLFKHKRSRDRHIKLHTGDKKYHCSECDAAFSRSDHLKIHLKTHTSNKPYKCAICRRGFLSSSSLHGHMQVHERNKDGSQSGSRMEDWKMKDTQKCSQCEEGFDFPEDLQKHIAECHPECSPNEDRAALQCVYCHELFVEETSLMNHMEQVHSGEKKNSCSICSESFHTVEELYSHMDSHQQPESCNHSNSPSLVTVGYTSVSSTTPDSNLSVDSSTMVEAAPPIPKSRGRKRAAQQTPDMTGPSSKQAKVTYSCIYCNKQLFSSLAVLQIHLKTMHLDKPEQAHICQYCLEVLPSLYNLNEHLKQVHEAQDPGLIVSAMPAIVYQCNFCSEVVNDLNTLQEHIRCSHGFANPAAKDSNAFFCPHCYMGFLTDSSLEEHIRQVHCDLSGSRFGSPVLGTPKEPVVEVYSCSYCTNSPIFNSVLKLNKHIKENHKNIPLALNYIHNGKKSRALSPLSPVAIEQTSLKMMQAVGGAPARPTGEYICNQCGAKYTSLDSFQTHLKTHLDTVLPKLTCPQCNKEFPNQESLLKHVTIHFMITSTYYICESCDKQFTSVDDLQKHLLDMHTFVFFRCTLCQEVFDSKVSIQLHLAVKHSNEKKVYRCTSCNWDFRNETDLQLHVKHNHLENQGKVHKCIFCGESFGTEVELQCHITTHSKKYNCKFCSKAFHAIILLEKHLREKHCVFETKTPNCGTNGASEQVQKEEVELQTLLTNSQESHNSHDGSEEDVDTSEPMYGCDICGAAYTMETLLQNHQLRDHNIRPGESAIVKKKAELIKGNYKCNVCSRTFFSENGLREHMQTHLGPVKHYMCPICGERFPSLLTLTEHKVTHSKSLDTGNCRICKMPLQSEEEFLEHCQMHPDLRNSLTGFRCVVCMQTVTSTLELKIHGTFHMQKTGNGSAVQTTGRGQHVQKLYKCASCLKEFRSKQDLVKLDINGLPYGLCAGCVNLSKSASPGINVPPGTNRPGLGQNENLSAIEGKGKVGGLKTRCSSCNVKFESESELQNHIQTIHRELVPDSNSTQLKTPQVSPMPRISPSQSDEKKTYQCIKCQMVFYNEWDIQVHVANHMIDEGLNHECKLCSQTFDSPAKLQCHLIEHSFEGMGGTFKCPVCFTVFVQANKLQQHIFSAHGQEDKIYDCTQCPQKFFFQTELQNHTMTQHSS
UniProt Q9Y3S2: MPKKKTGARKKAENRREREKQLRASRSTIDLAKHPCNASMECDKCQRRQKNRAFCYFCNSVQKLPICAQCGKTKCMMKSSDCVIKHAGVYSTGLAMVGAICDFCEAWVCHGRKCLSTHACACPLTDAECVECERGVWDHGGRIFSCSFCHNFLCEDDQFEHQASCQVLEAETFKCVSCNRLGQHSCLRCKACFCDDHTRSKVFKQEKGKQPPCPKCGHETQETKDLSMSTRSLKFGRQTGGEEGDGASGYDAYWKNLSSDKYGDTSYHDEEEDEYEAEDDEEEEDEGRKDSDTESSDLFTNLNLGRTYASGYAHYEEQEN
UniProt Q5VV52: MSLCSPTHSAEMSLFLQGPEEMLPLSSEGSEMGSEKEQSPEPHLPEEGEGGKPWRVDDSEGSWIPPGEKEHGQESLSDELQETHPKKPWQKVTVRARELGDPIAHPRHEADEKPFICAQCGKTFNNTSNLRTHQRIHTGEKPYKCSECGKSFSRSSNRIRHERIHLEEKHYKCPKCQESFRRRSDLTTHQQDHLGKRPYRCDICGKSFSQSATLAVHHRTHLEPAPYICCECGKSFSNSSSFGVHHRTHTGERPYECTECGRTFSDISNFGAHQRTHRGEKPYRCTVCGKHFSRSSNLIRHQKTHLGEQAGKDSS
UniProt Q86UK7: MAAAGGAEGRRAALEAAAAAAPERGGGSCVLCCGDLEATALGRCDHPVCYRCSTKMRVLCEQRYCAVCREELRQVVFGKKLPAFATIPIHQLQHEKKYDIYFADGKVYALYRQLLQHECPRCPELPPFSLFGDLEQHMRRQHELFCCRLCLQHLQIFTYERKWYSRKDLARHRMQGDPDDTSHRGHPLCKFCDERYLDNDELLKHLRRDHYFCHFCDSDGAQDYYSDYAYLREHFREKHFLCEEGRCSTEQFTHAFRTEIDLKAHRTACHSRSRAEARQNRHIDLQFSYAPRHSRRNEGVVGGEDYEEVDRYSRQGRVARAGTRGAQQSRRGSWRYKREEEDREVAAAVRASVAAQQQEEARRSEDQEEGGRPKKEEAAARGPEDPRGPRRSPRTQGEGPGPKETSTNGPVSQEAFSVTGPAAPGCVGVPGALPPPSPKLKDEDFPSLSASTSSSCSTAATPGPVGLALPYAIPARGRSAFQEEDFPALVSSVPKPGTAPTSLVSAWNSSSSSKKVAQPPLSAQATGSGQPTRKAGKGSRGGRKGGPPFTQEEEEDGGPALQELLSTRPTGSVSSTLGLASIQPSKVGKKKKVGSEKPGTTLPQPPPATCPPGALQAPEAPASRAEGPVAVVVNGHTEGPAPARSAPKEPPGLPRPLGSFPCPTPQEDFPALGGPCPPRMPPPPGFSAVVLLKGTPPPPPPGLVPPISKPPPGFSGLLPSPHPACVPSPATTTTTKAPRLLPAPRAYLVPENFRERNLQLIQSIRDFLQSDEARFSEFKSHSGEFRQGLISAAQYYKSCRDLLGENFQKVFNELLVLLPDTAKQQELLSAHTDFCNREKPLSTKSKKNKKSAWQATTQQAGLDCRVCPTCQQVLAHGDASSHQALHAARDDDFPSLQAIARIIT
UniProt Q92610: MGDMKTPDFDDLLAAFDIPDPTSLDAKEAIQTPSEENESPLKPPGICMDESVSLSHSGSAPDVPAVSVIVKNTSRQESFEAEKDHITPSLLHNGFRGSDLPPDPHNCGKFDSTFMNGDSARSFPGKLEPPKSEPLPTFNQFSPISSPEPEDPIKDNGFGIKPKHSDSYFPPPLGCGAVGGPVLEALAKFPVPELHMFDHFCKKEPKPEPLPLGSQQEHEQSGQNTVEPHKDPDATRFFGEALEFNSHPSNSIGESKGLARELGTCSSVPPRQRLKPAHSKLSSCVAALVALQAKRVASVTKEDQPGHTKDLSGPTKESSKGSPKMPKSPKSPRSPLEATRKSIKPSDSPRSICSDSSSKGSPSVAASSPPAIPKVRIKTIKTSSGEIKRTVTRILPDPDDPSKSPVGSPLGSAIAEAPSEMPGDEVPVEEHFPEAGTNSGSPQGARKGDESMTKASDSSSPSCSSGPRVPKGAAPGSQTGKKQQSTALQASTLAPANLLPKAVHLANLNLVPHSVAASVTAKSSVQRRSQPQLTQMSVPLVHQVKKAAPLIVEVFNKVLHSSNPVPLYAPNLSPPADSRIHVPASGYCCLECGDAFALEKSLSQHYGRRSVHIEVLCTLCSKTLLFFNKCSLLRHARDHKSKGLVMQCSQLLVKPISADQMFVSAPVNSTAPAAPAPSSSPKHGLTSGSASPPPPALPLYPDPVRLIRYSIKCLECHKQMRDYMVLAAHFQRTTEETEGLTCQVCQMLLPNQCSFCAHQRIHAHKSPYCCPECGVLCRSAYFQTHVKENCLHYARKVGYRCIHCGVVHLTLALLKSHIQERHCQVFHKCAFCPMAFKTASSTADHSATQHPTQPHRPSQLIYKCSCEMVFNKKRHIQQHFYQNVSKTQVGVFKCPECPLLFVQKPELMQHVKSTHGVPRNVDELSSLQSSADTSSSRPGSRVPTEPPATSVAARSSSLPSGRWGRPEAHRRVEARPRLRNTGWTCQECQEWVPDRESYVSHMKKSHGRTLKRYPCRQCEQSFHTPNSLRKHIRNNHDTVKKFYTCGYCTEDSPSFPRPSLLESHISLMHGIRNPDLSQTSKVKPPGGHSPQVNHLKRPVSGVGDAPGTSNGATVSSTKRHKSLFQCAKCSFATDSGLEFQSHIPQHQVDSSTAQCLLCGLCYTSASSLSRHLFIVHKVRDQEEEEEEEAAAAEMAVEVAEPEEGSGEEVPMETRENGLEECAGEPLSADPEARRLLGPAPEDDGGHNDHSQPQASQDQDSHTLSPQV
UniProt Q9ULU4: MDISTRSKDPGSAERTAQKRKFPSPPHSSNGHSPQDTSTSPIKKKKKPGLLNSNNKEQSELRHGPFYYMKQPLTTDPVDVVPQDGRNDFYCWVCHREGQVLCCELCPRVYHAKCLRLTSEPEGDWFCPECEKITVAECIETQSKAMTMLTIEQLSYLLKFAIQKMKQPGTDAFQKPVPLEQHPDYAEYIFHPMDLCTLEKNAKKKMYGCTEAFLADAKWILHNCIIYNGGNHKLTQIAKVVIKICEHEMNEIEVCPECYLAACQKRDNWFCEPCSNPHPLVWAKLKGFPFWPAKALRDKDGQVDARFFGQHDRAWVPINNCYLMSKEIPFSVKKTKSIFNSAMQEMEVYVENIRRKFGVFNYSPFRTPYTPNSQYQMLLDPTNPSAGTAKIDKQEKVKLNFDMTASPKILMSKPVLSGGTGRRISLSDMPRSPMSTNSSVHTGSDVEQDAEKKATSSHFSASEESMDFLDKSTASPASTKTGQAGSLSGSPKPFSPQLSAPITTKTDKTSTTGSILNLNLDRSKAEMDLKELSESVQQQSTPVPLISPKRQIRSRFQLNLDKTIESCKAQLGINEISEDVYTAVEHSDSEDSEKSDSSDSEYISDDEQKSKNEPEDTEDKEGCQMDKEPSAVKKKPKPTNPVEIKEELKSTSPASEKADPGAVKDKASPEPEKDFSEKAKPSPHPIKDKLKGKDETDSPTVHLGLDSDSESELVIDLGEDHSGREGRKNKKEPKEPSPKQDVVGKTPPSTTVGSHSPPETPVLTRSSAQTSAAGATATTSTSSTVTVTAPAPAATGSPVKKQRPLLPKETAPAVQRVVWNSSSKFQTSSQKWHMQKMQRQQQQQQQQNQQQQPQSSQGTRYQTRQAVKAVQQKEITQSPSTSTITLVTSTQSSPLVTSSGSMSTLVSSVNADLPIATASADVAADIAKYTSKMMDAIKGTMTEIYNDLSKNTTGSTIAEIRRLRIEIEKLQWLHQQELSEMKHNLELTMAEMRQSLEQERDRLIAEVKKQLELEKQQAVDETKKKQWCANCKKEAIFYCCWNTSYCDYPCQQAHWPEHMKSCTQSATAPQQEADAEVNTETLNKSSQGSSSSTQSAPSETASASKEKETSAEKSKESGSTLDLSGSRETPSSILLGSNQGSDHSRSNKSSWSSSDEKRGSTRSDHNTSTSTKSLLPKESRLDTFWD
UniProt A6NFI3: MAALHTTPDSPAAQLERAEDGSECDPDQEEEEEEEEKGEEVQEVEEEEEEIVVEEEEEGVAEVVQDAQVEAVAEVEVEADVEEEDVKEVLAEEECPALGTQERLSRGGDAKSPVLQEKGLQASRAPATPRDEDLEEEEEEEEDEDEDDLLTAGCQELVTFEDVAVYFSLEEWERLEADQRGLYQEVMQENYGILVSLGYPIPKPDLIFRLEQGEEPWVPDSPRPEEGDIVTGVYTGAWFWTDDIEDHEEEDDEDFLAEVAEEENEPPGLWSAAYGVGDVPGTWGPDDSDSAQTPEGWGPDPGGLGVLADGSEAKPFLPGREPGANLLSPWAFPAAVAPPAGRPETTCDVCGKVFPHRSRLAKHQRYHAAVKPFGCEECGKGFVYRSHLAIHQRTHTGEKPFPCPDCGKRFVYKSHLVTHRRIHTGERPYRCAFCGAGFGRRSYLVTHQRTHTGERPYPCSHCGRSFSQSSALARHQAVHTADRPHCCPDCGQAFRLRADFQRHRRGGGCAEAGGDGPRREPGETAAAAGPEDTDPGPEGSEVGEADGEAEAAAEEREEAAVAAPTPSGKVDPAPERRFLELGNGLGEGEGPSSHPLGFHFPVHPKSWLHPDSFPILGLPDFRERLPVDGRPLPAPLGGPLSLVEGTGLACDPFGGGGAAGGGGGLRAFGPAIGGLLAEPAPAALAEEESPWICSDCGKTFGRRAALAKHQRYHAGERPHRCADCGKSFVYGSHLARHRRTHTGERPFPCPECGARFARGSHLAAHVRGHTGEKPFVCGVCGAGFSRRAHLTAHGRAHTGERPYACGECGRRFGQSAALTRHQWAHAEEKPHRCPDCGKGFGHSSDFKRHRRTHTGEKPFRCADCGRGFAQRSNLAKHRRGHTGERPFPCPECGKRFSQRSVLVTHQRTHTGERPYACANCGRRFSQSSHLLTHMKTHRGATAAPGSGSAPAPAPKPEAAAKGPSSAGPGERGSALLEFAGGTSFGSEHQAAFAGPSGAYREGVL
UniProt Q96C55: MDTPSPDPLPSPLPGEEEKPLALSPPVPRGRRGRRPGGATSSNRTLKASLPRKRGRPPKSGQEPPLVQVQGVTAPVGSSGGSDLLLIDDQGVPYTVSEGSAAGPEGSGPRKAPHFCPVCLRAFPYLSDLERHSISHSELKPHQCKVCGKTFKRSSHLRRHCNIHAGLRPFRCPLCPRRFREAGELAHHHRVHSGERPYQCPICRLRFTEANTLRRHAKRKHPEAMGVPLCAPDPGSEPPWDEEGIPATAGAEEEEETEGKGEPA

Compound: Cc1cc(ccc1-c1ccccc1)C(=O)N1CCCN(CC1)C(=O)CCl [compound 10]
Assay: probe-labelled cysteine peptide fold change vs DMSO (competition) (log2 fold change); higher = less target engagement (more negative = stronger competition)
Conditions: THP-1, incubation time: 4 h
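Also: competitive profiling in live THP-1 cells: cysteine peptides tagged with an iodoacetamide desthiobiotin (IA-DTB) probe, intensity after compound treatment relative to DMSO-treated cells.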

Target	probe-labelled cysteine peptide fold change (10 µM)	probe-labelled cysteine peptide fold change (50 µM)
ZNF521_Q96K83_990_SLDTGNCR (UniProt Q96K83)	0.112	0.0963
ZNF207_O43670_13_QLKPWCWYCNR (UniProt O43670)	0.0726	-0.69
ZNF114_Q8NC26_51_NLAFIDWATPCK (UniProt Q8NC26)	-0.0397	0.0891
ZFP41_Q8N8Y5_154_AFNCGSNLLK (UniProt Q8N8Y5)	0.0919	-0.618
ZFX_P17010_664_CDMCDK (UniProt P17010)	0.213	0.0294
ZNF521_Q96K83_31_TEDGEALDCK (UniProt Q96K83)	-0.0474	0.342
ZMYM4_Q5VZL5_1264_SDPLGSTQDHALSQESSEPGCR (UniProt Q5VZL5)	-0.191	-0.376
ZNF326_Q5BKZ1_314+317_MAFTCSFCK (UniProt Q5BKZ1)	-0.145	-0.401
ZNF362_Q5T0B9_232_VCPLTFFTK (UniProt Q5T0B9)	-0.232	-0.0928
ZNF319_Q9P2F9_307_ESSELLQHPCTPSGERPFR (UniProt Q9P2F9)	0.014	-0.221
ZNF483_Q8TF39_392_IHLGDRSQKCSK (UniProt Q8TF39)	-0.0771	-0.64
ZFP36L2_P47974_174_CQFAHGFHELR (UniProt P47974)	-0.156	0.0378
ZNF106_Q9H2Y7_1653_RLEIFECHGPR (UniProt Q9H2Y7)	-0.17	0.17
ZMYM4_Q5VZL5_1368_IEEEHLWECK (UniProt Q5VZL5)	0.123	-0.246
ZMYM4_Q5VZL5_1499_SCVPNSPMWYSTFPIDPGTLDTMLTR (UniProt Q5VZL5)	-0.668	-0.33
ZNF670_Q9BS34_339_THTGVKPYGCK (UniProt Q9BS34)	0.0468	0.199
ZFP36L2_P47974_212_CHFIHNADER (UniProt P47974)	-0.142	0.376
ZFYVE1_Q9HBF4_71_LKPGHVPYCDLCK (UniProt Q9HBF4)	-0.0474	-0.684
ZNF143_P52747_299+304_CSEDNCTK (UniProt P52747)	0.278	-0.18
ZNF277_Q9NRM2_137_INSTAPFEEQENYFLLCDVLPEDR (UniProt Q9NRM2)	0.249	0.407
ZNF687_Q8N1G0_576_CSLLLHAR (UniProt Q8N1G0)	-0.0325	0.126
ZMYM3_Q14202_314_MTCAHCR (UniProt Q14202)	-0.0797	-0.364

Target	probe-labelled cysteine peptide fold change (10 µM)	probe-labelled cysteine peptide fold change (50 µM)
ZNF330_Q9Y3S2_132_CLSTHACACPLTDAECVECER (UniProt Q9Y3S2)	0.0165	0.0302
ZNF280C_Q8ND82_94_CRDPPSNPVAASPR (UniProt Q8ND82)	-0.112	-0.00969
ZFYVE26_Q68DK2_60_RVEDILQALVVCPNLLR (UniProt Q68DK2)	-0.114	-0.191
ZNF740_Q8NDX6_9_AQASLLACEGLAGVSLVPTAASK (UniProt Q8NDX6)	0.0108	-0.0293
ZFYVE27_Q5T4F4_353_RYPTNNFGNCTGCSATFSVLK (UniProt Q5T4F4)	-0.216	-0.378
ZFY_P08048_549_NFPHICVECGK (UniProt P08048)	-0.0111	-0.0643
ZNF267_Q14586_218_NYHCNNSEK (UniProt Q14586)	-0.113	-0.426
ZNF691_Q5VV52_230_THLEPAPYICCECGK (UniProt Q5VV52)	-0.116	-0.983
ZNF124_Q15973_292+295_THIAQKPYVCNNCGK (UniProt Q15973)	-0.0537	-0.431
ZNF330_Q9Y3S2_192+194_ACFCDDHTR (UniProt Q9Y3S2)	0.23	-0.145
ZNF598_Q86UK7_835_QQELLSAHTDFCNR (UniProt Q86UK7)	0.0235	-0.119
ZNF592_Q92610_648_GLVMQCSQLLVK (UniProt Q92610)	0.0258	-0.148
ZMYM3_Q14202_1197_VEEEHLWECK (UniProt Q14202)	0.148	-0.0344
ZNF644_Q9H582_152_GSVSLTTGQPVDQPTTESCSTLK (UniProt Q9H582)	-0.148	-0.122
ZNF512_Q96ME7_324_SEHGPISFFPESGQPECLK (UniProt Q96ME7)	0.231	-0.00904
ZMYND11_Q15326_249+258_DTCHELDELQLCK (UniProt Q15326)	0.32	-0.0828
ZNF512_Q96ME7_258_ESCSSSFTSIMGYLYHVR (UniProt Q96ME7)	0.118	0.185
ZFYVE19_Q96K21_435_CAGCDGDLFCAR (UniProt Q96K21)	0.0027	-0.124
ZNF644_Q9H582_1233_MDLTMHSALDCK (UniProt Q9H582)	-0.116	-0.33
ZNF292_O60281_982_QENSTVEGSGEALVTDLHTPVEDTCNDLCHPGFQER (UniProt O60281)	-0.534	-0.289
ZMIZ2_Q8NF64_471_CYHHEDR (UniProt Q8NF64)	0.0998	0.0374
ZNF592_Q92610_353_SICSDSSSK (UniProt Q92610)	-0.0195	-0.139

Target	probe-labelled cysteine peptide fold change (10 µM)	probe-labelled cysteine peptide fold change (50 µM)
ZMYND8_Q9ULU4_94_NDFYCWVCHR (UniProt Q9ULU4)	0.0828	0.0284
ZNF326_Q5BKZ1_12_MDFEDDYTHSACR (UniProt Q5BKZ1)	-0.0724	0.758
ZNF574_Q6ZN55_394+396_AHTPNPLHSCPCGK (UniProt Q6ZN55)	-0.0114	-0.363
ZNF768_Q9H5H4_378_THSHERPYSCTECGK (UniProt Q9H5H4)	0.271	-0.00926
ZNF512B_Q96KM6_6_TDPFCVGGR (UniProt Q96KM6)	-0.0569	0.0733
ZMYM3_Q14202_1326_SCIAESPLWYSVIPMDR (UniProt Q14202)	0.107	0.274
ZNF512_Q96ME7_430_AHLGSCTLGNFVAGK (UniProt Q96ME7)	-0.105	0.02
ZNF217_O75362_697_PLNLSVGALHNCPAISLSK (UniProt O75362)	0.198	0.102
ZNF451_Q9Y4E5_476_TWFCECNQR (UniProt Q9Y4E5)	0.0139	0.0709
ZNF316_A6NFI3_920_THTGERPYACANCGR (UniProt A6NFI3)	0.182	0.0601
ZNF638_Q14966_1947_AMTNHCK (UniProt Q14966)	-0.149	-0.155
ZMYND11_Q15326_347_ACDELELHQR (UniProt Q15326)	-0.0244	0.143
ZNF330_Q9Y3S2_109_HAGVYSTGLAMVGAICDFCEAWVCHGR (UniProt Q9Y3S2)	0.111	0.315
ZNF428_Q96B54_111_SPLGEAPPGTPPCR (UniProt Q96B54)	-0.0593	-0.657
ZNF451_Q9Y4E5_940_IGCFFLHPR (UniProt Q9Y4E5)	-0.216	-0.702
ZNF622_Q969S3_69+72_GSATYCTVCSK (UniProt Q969S3)	0.0753	0.0378
ZNF644_Q9H582_202_KLPTSASVGCDIQNSVGSNIK (UniProt Q9H582)	-0.312	-0.167
ZNF280D_Q6N043_449_NLLCPFCLK (UniProt Q6N043)	-0.0867	-0.468
ZNF217_O75362_310_VAICQEVK (UniProt O75362)	-0.0678	0.428
ZNF598_Q86UK7_119_QLLQHECPR (UniProt Q86UK7)	-0.206	-0.265
ZNF580_Q9UK33_122_VSHSDLKPFTCGACGK (UniProt Q9UK33)	-0.0566	-0.194
ZNF316_A6NFI3_861_CADCGR (UniProt A6NFI3)	0.394	0.501

Target	probe-labelled cysteine peptide fold change (10 µM)	probe-labelled cysteine peptide fold change (50 µM)
ZMYM3_Q14202_1106_IKEDILACSAAELNYGLAQFVR (UniProt Q14202)	-0.0828	-0.268
ZFR_Q96KR1_384_CELCDVSCTGADAYAAHIR (UniProt Q96KR1)	-0.0197	0.596
ZNF22_P17026_113_CDECGESFK (UniProt P17026)	0.124	0.512
ZNF691_Q5VV52_257_THTGERPYECTECGR (UniProt Q5VV52)	0.142	0.446
ZNF326_Q5BKZ1_314_MAFTCSFCK (UniProt Q5BKZ1)	-0.00707	-0.272
ZNF451_Q9Y4E5_507_VCDDSGVIR (UniProt Q9Y4E5)	-0.125	-0.101
ZNF524_Q96C55_161_HCNIHAGLRPFR (UniProt Q96C55)	0.113	-0.229
ZNF512_Q96ME7_445_CLLCQK (UniProt Q96ME7)	-0.0136	0.148
ZNF330_Q9Y3S2_120+122_CLSTHACACPLTDAECVECER (UniProt Q9Y3S2)	0.16	-0.138
ZNF131_P52739_235_EDGCPSDPTSK (UniProt P52739)	-0.195	0.0174
ZNF512_Q96ME7_171_GSVSCPTCQAVGR (UniProt Q96ME7)	0.135	-0.0282
ZMYM2_Q9UBW7_755_DFCSEDCCK (UniProt Q9UBW7)	0.0133	-0.919
ZNF316_A6NFI3_95_EVLAEEECPALGTQER (UniProt A6NFI3)	0.175	0.146
ZNF330_Q9Y3S2_82_SSDCVIK (UniProt Q9Y3S2)	-0.0194	-0.239
ZFR_Q96KR1_333_QPPKPPQIHYCDVCK (UniProt Q96KR1)	0.388	0.0938
ZMYND8_Q9ULU4_106_EGQVLCCELCPR (UniProt Q9ULU4)	0.0622	0.211
ZNF598_Q86UK7_150_LCLQHLQIFTYER (UniProt Q86UK7)	0.025	0.016
ZMYND11_Q15326_258_DTCHELDELQLCK (UniProt Q15326)	0.073	0.0974
ZFR_Q96KR1_991_GSPGLLDPCEK (UniProt Q96KR1)	-0.188	0.343
ZNF672_Q499Z4_204_VSDAHQCGVCGK (UniProt Q499Z4)	0.113	0.151
